Data as given in PubChem BioAssay AID652272 (Drosophila RNAi Screening Center, 2013)

- Purpose: 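Genes whose knock-down decreases or increases Hedgehog reporter output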 (primary screen)
- System: Drosophila clone 8 (Cl8) cells
- Reagents: long dsRNA against Drosophila genes
- Measured: 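Firefly light from a Hedgehog-responsive ptc promoter reporter and Renilla reference light, both read on a plate reader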
- Reading the numbers: firefly Hh reporter signal: higher = more ptc reporter light; Renilla reference signal: higher = more Renilla control light
- Hit rule: 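Hit when the z-score averaged over two replicates is under -2 or over +3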
- Calls: active = hit: reporter lowered or raised; inactive = not a hit
The deposit covers about 21,000 reagents; shown is a random part of those that have a named target and a result. Of all reagents, 503 (2.4%) got an active call. 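Raw plate light values, not normalised; calls rest on replicate z-scores that were not deposited; hits include reporter decreases as well as increases.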 The numbers tell different reagents against one gene apart. Not stated in the record: the amount of reagent, the time to read-out.

For CG15283, the values are firefly Hh reporter signal, replicate 1 = 1.74e5; firefly Hh reporter signal, replicate 2 = 56586; Renilla reference signal, replicate 1 = 4136; Renilla reference signal, replicate 2 = 5036; inactive.
Silencing of BI-1 (Bax Inhibitor-1) came out at: firefly Hh reporter signal, replicate 1 = 48122; firefly Hh reporter signal, replicate 2 = 84626; Renilla reference signal, replicate 1 = 2368; Renilla reference signal, replicate 2 = 3253; inactive.
Lcp65APsi (pseudo) #1 scored firefly Hh reporter signal, replicate 1 = 1.17e5; firefly Hh reporter signal, replicate 2 = 2.27e5; Renilla reference signal, replicate 1 = 2992; Renilla reference signal, replicate 2 = 9336; inactive.
After knock-down of Lcp65APsi (pseudo) #2 the results were firefly Hh reporter signal, replicate 1 = 83044; firefly Hh reporter signal, replicate 2 = 59244; Renilla reference signal, replicate 1 = 6455; Renilla reference signal, replicate 2 = 5136; inactive.
dec (defective chorion) showed firefly Hh reporter signal, replicate 1 = 1.23e5; firefly Hh reporter signal, replicate 2 = 3.68e5; Renilla reference signal, replicate 1 = 5106; Renilla reference signal, replicate 2 = 14685; inactive.
Silencing of Mettl3 (Methyltransferase like 3) resulted in: firefly Hh reporter signal, replicate 1 = 5.27e5; firefly Hh reporter signal, replicate 2 = 1.12e5; Renilla reference signal, replicate 1 = 25990; Renilla reference signal, replicate 2 = 2836; inactive.
For CG15631, the entry reads firefly Hh reporter signal, replicate 1 = 1.05e5; firefly Hh reporter signal, replicate 2 = 69933; Renilla reference signal, replicate 1 = 2389; Renilla reference signal, replicate 2 = 4803; inactive.
After knock-down of APC7 (Anaphase Promoting Complex subunit 7) the results were firefly Hh reporter signal, replicate 1 = 73098; firefly Hh reporter signal, replicate 2 = 65200; Renilla reference signal, replicate 1 = 1773; Renilla reference signal, replicate 2 = 1540; inactive.
cuff (cutoff) scored firefly Hh reporter signal, replicate 1 = 82231; firefly Hh reporter signal, replicate 2 = 67867; Renilla reference signal, replicate 1 = 1112; Renilla reference signal, replicate 2 = 4200; inactive.
With knock-down of Surf4 (Surfeit 4) the results were firefly Hh reporter signal, replicate 1 = 60082; firefly Hh reporter signal, replicate 2 = 70256; Renilla reference signal, replicate 1 = 2018; Renilla reference signal, replicate 2 = 1748; inactive.
With knock-down of PLCXD the results were firefly Hh reporter signal, replicate 1 = 97304; firefly Hh reporter signal, replicate 2 = 5.71e5; firefly Hh reporter signal, replicate 3 = 61180; Renilla reference signal, replicate 1 = 2459; Renilla reference signal, replicate 2 = 31163; inactive.
For CG12708, the values are firefly Hh reporter signal, replicate 1 = 90845; firefly Hh reporter signal, replicate 2 = 2.32e5; Renilla reference signal, replicate 1 = 3220; Renilla reference signal, replicate 2 = 10519; inactive.

Part of the list above in another layout.
target gene	reagent no.	firefly Hh reporter signal, replicate 1	firefly Hh reporter signal, replicate 2	firefly Hh reporter signal, replicate 3	Renilla reference signal, replicate 1	Renilla reference signal, replicate 2	outcome
CG15283	1	1.74e5	56586		4136	5036	inactive
BI-1 (Bax Inhibitor-1)	1	48122	84626		2368	3253	inactive
